At least one structure is not confirmed: it was looked up by name or label, or the drawing left a doubt.
Tested on: imidazoline receptor I2
Assay: radioligand binding to imidazoline receptor I2 ([3H] Idazoxan)
Parameters: species or system rat
Settings: 10 μM ligand
Procedure: Determination of investigated compounds' binding to imidazoline I2 receptor is carried out according to the method described in [Brown C M, MacKinnon A C, McGrath J C, Spedding M and Kilpatrick A T, a2-Adrenoceptor subtypes and imidazoline-like binding in the rat brain. Br J. Pharmacol. 99:803-809, 1990]. […] Idazoxan is used as positive control.

Cc1ccc2c(c1)[C@H]1CN(C)CCC[C@@H]1N2CCc1cccnc1 [1.6.2(10)•3HCl]
imidazoline I2 receptor % inhibition: 85%

Source: patent US20110039825A1, “LIGANDS OF ALPHA-ADRENOCEPTORS, DOPAMINE, HISTAMINE, IMIDAZOLINE AND SEROTONIN RECEPTORS AND THEIR USE” (Alla Chem, LLC, priority 2007, published 2011)
